These are yes or no findings as the source states them, for the method shown. Some binding calls cover weakened binding; strength is not graded here.
Columns and labels:
[1] = target: T1, IL-20RA/IL-20RB heterodimeric receptor (on cells) (human) (UniProt Q9UHF4); assay: binding to transfected cell lines, told in words
T1 sequence 1: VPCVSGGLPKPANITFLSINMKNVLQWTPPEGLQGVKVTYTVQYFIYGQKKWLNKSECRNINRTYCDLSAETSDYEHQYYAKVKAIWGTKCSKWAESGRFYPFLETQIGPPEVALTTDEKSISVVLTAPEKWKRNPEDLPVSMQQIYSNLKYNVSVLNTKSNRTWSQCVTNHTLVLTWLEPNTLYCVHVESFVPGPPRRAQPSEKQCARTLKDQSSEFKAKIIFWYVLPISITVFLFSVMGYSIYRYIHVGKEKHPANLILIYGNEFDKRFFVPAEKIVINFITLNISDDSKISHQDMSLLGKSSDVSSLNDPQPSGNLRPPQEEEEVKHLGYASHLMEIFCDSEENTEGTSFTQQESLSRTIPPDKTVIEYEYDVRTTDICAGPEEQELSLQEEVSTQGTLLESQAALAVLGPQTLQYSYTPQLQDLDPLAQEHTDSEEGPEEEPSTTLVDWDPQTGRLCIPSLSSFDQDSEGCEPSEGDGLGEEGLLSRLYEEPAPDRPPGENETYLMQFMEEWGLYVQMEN
T1 sequence 2: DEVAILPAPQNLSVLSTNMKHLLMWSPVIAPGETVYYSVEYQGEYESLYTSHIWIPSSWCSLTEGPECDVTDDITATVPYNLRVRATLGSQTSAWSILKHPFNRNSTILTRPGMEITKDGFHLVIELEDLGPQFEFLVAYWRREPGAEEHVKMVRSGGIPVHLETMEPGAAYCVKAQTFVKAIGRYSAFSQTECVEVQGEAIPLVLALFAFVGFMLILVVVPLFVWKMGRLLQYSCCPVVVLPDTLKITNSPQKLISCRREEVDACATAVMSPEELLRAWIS

[2] = target: T1, IL-20RA/IL-20RB heterodimeric receptor (on cells) (human); assay: cell-based binding assay (secretion trap) on transiently transfected COS cells
[3] = target: T1, IL-20RA/IL-20RB heterodimeric receptor (on cells) (human); assay: radiolabeled ligand binding assay on stably transfected BHK cells

Measured: binding

B1: IL-20 (ligand)
chain: LKTLNLGSCVIATNLQEIRNGFSDIRGSVQAKDGNIDIRILRRTESLQDTKPANRCCLLRHLLRLYLDRVFKNYQTPDHYTLRKISSLANSFLTIKKDLRLCHAHMTCHCGEEAMKKYSQILSHFEKLEPQAAVVKALGELDILLQWMEETE
modifications: biotin label in Example 6; 125I label in Example 10
notes: also called Zcyto10; biotinylated IL-20 protein
binds: [1] | [2] | [3]
